From PubChem BioAssay AID488837 (National Center for Advancing Translational Sciences (NCATS), 2010)
Out of some 330,000 compounds screened, about 20 (0.006%) were called active. The shares of active, inactive and inconclusive entries below differ from those in the screen. The call rests on the fitted dose curve; in most records, active means well fitted inhibition curve with a large enough effect; inconclusive means small, poorly fitted or top-dose-only effect, or effect the other way; inactive means flat fitted curve, though single readings scatter. A potency beside an inconclusive call is a rough fit, not a confirmed value.

By UniProt entry, the sequences of proteins in these tests, tags left out. Where a name states a change or a piece, a line headed by the entry shows the natural chain unless it says otherwise.
UniProt O00167: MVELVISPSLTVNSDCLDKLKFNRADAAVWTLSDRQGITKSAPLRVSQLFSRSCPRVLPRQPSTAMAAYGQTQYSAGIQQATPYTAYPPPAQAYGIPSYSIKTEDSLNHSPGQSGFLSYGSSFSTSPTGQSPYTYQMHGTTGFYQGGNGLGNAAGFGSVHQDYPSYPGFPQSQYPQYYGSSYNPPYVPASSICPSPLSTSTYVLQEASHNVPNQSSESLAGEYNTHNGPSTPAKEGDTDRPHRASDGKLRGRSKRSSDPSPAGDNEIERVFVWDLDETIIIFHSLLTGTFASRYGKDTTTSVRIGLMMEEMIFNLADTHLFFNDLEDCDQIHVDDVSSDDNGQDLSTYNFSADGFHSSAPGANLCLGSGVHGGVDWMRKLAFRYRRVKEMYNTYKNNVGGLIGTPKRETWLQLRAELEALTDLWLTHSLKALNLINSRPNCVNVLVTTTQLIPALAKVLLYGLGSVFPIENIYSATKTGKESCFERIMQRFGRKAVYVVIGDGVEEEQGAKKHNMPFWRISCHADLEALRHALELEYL

Target: Protein phosphatase EYA2 (Homo sapiens) (UniProt O00167)
Test: qHTS Assay for Inhibitors of the Phosphatase Activity of Eya2
Conditions: recombinant Eya2, OMFP fluorescence dephosphorylation (OMFP is methylfluorescein phosphate); activity, negative = inhibition: at 76.9 µM (top of the series) unless noted
How it was run: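 Eya2 (0.2 uM) preincubated 10 min at ambient with compound, then OMFP substrate added at 50 uM; 10 min reaction in 50 mM HEPES pH 7.5, 50 mM NaCl, 5 uM MgCl2, 0.05% BSA, 1 mM DTT. Fluorescence read at Ex 485/Em 525 nm.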
On the % scale 0 is the no-effect control and ±100 the full control effect; potency means the concentration at half of the fitted maximal effect.

Row | Compound | Potency | activity, negative = inhibition
1 | CSc1sc(C(=O)N(C)C)c2c1S(=O)(=O)N(C)c1ccccc1-2 | inconclusive: 100 µM [inhibitor, single point] | 
2 | CC(=O)Nc1ccc(/C=C2\Sc3ccccc3C2=O)cc1 | inconclusive: 631 µM [inhibitor, single point] | 
3 | O=C(Cn1nc(Cc2ccncc2)c2ccccc2c1=O)N1CCN(C(=O)c2ccco2)CC1 | inconclusive: 17.8 µM [inhibitor, single point] | 
4 | C=CCn1c2ccccc2c2nnc(SCCN3CCOCC3)nc21 | inconclusive: 501 µM [inhibitor, single point] | 
5 | CNC(=O)/C(C#N)=C/c1c(N(Cc2ccccc2)Cc2ccccc2)nc2c(C)cccn2c1=O | inactive | 
6 | COC(=O)c1cccc(-n2c(CCC(=O)O)ccc2-c2cccs2)c1 | inconclusive: 56.2 µM [inhibitor, partial curve, poor fit] | 
7 | O=C1CSC(c2ccccc2O)N1Cc1ccccc1 (centres undefined) | inconclusive: 100 µM [inhibitor, single point] | 
8 | Cc1ccc(-n2c(=O)cc(N3CCN(Cc4ccccc4)CC3)[nH]c2=O)cc1 | inconclusive: 14.1 µM [inhibitor, single point] | 
9 | COc1ccccc1N(C)S(=O)(=O)c1ccc(C(=O)OCC(N)=O)cc1 | inconclusive: 20 µM [inhibitor, single point] | 
10 | CCOC(=O)Nc1nnc(/C=C/c2ccc(OC)cc2)s1 | inactive | 
11 | OCCCc1nc2n(n1)C(c1cccs1)C=C(c1ccccc1)N2 (centres undefined) |  | inconclusive: 257% [activator]
12 | Cc1cc(=O)n2nc(N3CCCC(C(=O)NCCc4ccccc4)C3)sc2n1 (centres undefined) | inactive | 
13 | CCc1ccc(C(=O)Nn2c(C)nc3ccccc3c2=O)cc1 | inconclusive: 398 µM [inhibitor, partial curve, poor fit] | 
14 | COc1cccc(CN2CCN(c3ncccn3)CC2)c1 | inactive | 
15 | Nc1nonc1-n1nnc(C(=O)N/N=C/c2ccccc2Cl)c1COc1ccc(F)cc1 | inconclusive: 100 µM [inhibitor, single point] | 
16 | COc1cccc(OC)c1/C=C/C(=O)NC1CCCCC1 | inconclusive: 22.4 µM [inhibitor, single point] | 
17 | Oc1ccc2[nH]ccc2c1 | inactive | 
18 | Cn1nccc1/C=C(/C#N)S(=O)(=O)c1ccccc1 | inconclusive: 39.8 µM [inhibitor, partial curve, poor fit] | 
19 | O=C(Nc1cccc([N+](=O)[O-])c1)c1cc2ccccc2cc1O | inactive | 
20 | Cc1ccc2c(CN(C)Cc3cccc(Cl)c3)cc(=O)oc2c1C | inconclusive: 100 µM [inhibitor, single point] | 
21 | Oc1oc(C=Nc2ccc(F)cc2F)c2ccccc12 | inconclusive: 20 µM [inhibitor, partial curve, poor fit] | 
22 | CCCCCCN=C(C)c1ccccc1O | inconclusive: 251 µM [inhibitor, partial curve, poor fit] | 
23 | CC(C)Cn1c(N)c(C(=O)COC(=O)c2ccc3c(c2)OCCO3)c(=O)n(C)c1=O | inactive | 

Row | Compound | Potency | activity, negative = inhibition
24 | Cc1cc(C)c2c(N)c(-c3nnc(SCc4ccc(Cl)cc4)n3C)sc2n1 | inconclusive: 355 µM [inhibitor, partial curve] | 
25 | CC(C)Cn1c(N)c(C(=O)COC(=O)c2ccc([N+](=O)[O-])o2)c(=O)n(C)c1=O | inconclusive: 251 µM [inhibitor, partial curve] | 
26 | CCc1ccccc1N1C(=O)c2cccc3c(N4CCOCC4)c([N+](=O)[O-])cc(c23)C1=O | inconclusive: 39.8 µM [inhibitor, partial curve, poor fit] | 
27 | COc1cc(N=Nc2c(O)c3ccccc3[nH]c2=O)c(OC)cc1N=Nc1ccccc1 | inconclusive: 112 µM [inhibitor, single point] | 
28 | CCOC(=O)c1sc(N)nc1C(C)C | inconclusive: 20 µM [inhibitor, single point] | 
29 | O=C(/C=C/Nc1ccc(S(=O)(=O)Nc2ncccn2)cc1)c1ccc2ccccc2c1 | inconclusive: 100 µM [inhibitor, single point] | 
30 | Cc1ccc(F)cc1S(=O)(=O)NCc1ccc(N2CCN(C)CC2)cc1 | inconclusive: 79.4 µM [inhibitor, single point] | 
31 | CCN(C(=O)COc1ncnc2ccccc12)C1CCCCC1 | inconclusive: 89.1 µM [inhibitor, single point] | 
32 | CCOC(=O)N1CCN(C(=O)NC2CCCCC2)CC1 | inconclusive: 100 µM [inhibitor, partial curve, poor fit] | 
33 | O=C(CCNc1cccc(Cl)c1)c1ccco1 | inactive | 
34 | CN(C)CC(CCC(CN(C)C)C(=O)c1ccccc1)C(=O)c1ccccc1 (centres undefined) | inactive | 
35 | OC(CNC1CCCCCC1)COc1cccc2ccccc12 (centres undefined) | inconclusive: 100 µM [inhibitor, single point] | 
36 | CCc1nc(CN(C)C(=O)C2CCC(=O)N(Cc3cccc(F)c3)C2)no1 (centres undefined) | inconclusive: 89.1 µM [inhibitor, single point] | 
37 | COc1cccc(-c2c(C#N)c(N)nc3c2c(C)nn3-c2ccccc2)c1O | inconclusive: 22.4 µM [inhibitor, single point] | 
38 | CCCC(=O)Nc1c(-c2cccc(OC)c2)c(=O)c2ccccc2n1C | inconclusive: 141 µM [inhibitor, single point] | 
39 | Oc1ccc(N=Nc2nccs2)c(O)c1 | inconclusive: 100 µM [inhibitor, partial curve] | 
40 | COc1ccc(S(=O)(=O)Nc2cc3[nH]c(=O)oc3cc2C)cc1 | inconclusive: 141 µM [inhibitor, partial curve, poor fit] | 
41 | CCOCCCNC(=O)C(c1ccc(OC)cc1)N(Cc1ccc2c(c1)OCO2)C(=O)c1cnccn1 (centres undefined) | inconclusive: 100 µM [inhibitor, single point] | 
42 | Cc1ccc2c(c1)C(c1ccccc1)N(C(=O)c1ccccc1[N+](=O)[O-])CC(=O)N2 (centres undefined) | inconclusive: 112 µM [inhibitor, single point] | 
43 | Cn1c(=O)c2c(nc(CN3CCN(Cc4ccccc4)CC3)n2Cc2cccc(Cl)c2)n(C)c1=O | inactive | 
44 | COc1ccc(N2CCN(C3CCCN(Cc4cccc(C(C)=O)c4)C3)CC2)cc1 (centres undefined) | inconclusive: 100 µM [inhibitor, single point] | 
45 | CCC1CCCCN1CCCNC(=O)Cn1nc(-c2ccc(C)cc2)ccc1=O (centres undefined) |  | inconclusive: 37% [activator]
46 | CC(C)CSC1=NSC2=NC(=O)/C(=C\c3coc4ccccc4c3=O)C(=N)N12 | inconclusive: 31.6 µM [activator, partial curve] | 

Row | Compound | Potency | activity, negative = inhibition
47 | N#C/C(=C\c1c(Cl)cccc1Cl)c1nc2ccccc2[nH]1 | inactive | 
48 | CC(=O)Nc1ccc(Nc2nc(C)cc(C)n2)cc1 | inconclusive: 22.4 µM [inhibitor, single point] | 
49 | COc1cc2ccccc2cc1C(=O)N(CCN(C)C)c1nc2c(OC)ccc(OC)c2s1 | inconclusive: 89.1 µM [inhibitor, single point] | 
50 | N#Cc1ccccc1Cn1cc(/C=N/Nc2ccc([N+](=O)[O-])cn2)c2ccccc21 | inconclusive: 22.4 µM [inhibitor, single point] | 
51 | O=C(NC(Cc1ccccc1)C(=O)NCCc1ccccn1)c1cccs1 (centres undefined) | inconclusive: 89.1 µM [inhibitor, single point] | 
52 | CCC1OC2(C)OC(=N)C1(C#N)C(C#N)(C#N)C2c1ccccc1 (centres undefined) | inactive | 
53 | COc1cc(/C=C(\C#N)c2ccccn2)cc(OC)c1O | inactive | 
54 | CCC(C)(C)n1nnnc1C(c1cc2cc3c(cc2[nH]c1=O)OCO3)N1CCCCC1 (centres undefined) | inconclusive: 22.4 µM [inhibitor, partial curve] | 
55 | Cc1ccc(N2C(=O)N(CC(=O)N3c4ccccc4CC3C)C(=O)C2C)cc1 (centres undefined) | inactive | 
56 | Cc1cc(C)cc(NC(=O)N2CCN(Cc3ccc4c(c3)OCO4)CC2)c1 | inconclusive: 100 µM [inhibitor, single point] | 
57 | O=[N+]([O-])c1ccc(/C=N\NS(=O)(=O)c2ccc(F)cc2)o1 | inactive | 
58 | COCCn1c(-c2cc(OC)c(OC)c(OC)c2)nc2oc3cc(OC)ccc3c(=O)c2c1=O | inconclusive: 22.4 µM [inhibitor, single point] | 
59 | Cc1cc(NS(=O)(=O)c2ccc(NC(=O)c3ccc(Cl)cc3Cl)cc2)no1 | inactive | 
60 | Cc1ccc(-c2c(NC(=O)c3ccco3)oc3ccccc3c2=O)cc1 | inconclusive: 63.1 µM [inhibitor, partial curve, poor fit] | 
61 | N/C(=N\OC(=O)Cc1cccs1)c1ccc(Cl)cc1 | inconclusive: 158 µM [inhibitor, partial curve, poor fit] | 
62 | O=C(N/N=C/c1cccc(O)c1)c1cc(C2CC2)nc2ccccc12 | inconclusive: 20 µM [inhibitor, single point] | 
63 | CN(C)c1ccc(SC#N)cc1 | inconclusive: 20 µM [inhibitor, single point] | 
64 | O=C(NC(=S)NNC(=O)c1ccco1)c1ccc(Br)cc1 | inactive | 
65 | CC(C)OCC(O)CN1CCNCC1 (centres undefined) | inconclusive: 1410 µM [inhibitor, single point] | 
66 | O=C(Nc1ccc(F)cc1)/C(Cl)=C/c1ccccc1 | inconclusive: 100 µM [inhibitor, single point] | 
67 | CCCO/N=C1/C(=O)N(c2ccccc2)c2ccccc21 | inconclusive: 100 µM [inhibitor, single point] | 
68 | FC(F)(F)c1nnc2sc(-c3ccncc3)nn12 | inactive | 
69 | Cc1ccc(N2CC(C(=O)Nc3ccc(S(=O)(=O)N4CCCC4)cc3)CC2=O)cc1C (centres undefined) | inconclusive: 25.1 µM [inhibitor, single point] | 

Part of the list above in order of length of the SMILES, descending:
Row | Compound | Potency | activity, negative = inhibition
54 | CCC(C)(C)n1nnnc1C(c1cc2cc3c(cc2[nH]c1=O)OCO3)N1CCCCC1 (centres undefined) | inconclusive: 22.4 µM [inhibitor, partial curve] | 
56 | Cc1cc(C)cc(NC(=O)N2CCN(Cc3ccc4c(c3)OCO4)CC2)c1 | inconclusive: 100 µM [inhibitor, single point] | 
65 | CC(C)OCC(O)CN1CCNCC1 (centres undefined) | inconclusive: 1410 µM [inhibitor, single point] | 
